# In the supplement of paper PMC10849652:
# Chains of the proteins cited; added tags and fusions are not shown. Lines headed by an entry give the natural chain unless they say otherwise; changes in a name come on top.
# UniProt Q8TCT7: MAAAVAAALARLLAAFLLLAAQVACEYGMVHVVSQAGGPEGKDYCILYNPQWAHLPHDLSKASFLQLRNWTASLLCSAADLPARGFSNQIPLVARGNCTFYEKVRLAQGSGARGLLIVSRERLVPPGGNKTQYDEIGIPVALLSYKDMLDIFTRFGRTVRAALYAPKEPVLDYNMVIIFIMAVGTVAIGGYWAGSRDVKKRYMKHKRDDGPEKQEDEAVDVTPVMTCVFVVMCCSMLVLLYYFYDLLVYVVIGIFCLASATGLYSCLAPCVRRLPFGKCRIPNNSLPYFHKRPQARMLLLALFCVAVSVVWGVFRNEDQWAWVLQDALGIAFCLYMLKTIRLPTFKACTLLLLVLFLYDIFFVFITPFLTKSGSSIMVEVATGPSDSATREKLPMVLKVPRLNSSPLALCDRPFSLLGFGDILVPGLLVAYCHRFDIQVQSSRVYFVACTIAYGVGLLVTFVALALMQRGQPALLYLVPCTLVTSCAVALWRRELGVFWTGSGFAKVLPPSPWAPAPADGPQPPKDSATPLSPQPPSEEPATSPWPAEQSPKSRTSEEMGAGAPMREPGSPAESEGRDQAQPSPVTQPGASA
# UniProt P84103: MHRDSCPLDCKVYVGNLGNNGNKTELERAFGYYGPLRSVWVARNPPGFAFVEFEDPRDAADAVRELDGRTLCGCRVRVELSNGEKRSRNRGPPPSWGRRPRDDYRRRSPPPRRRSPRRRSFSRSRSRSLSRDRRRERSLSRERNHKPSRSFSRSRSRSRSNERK
# UniProt Q13586, whole entry, looked up: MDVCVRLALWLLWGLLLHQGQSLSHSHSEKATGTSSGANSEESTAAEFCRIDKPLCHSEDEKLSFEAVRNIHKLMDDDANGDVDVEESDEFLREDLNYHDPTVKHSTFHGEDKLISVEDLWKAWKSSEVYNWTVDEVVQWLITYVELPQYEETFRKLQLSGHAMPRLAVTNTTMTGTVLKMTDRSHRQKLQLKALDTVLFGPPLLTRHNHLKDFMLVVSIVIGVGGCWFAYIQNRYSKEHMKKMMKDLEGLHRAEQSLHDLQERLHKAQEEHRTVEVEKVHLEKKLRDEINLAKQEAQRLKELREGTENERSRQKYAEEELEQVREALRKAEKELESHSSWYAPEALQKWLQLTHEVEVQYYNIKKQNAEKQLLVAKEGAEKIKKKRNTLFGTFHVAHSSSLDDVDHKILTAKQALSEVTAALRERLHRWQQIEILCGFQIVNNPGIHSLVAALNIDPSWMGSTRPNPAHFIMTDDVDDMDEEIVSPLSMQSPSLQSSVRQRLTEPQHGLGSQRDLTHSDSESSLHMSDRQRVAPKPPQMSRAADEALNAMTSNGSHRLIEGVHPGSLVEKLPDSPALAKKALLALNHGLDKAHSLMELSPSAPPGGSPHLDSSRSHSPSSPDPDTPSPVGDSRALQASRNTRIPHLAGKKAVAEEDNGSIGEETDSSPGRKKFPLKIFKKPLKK
# UniProt Q16629: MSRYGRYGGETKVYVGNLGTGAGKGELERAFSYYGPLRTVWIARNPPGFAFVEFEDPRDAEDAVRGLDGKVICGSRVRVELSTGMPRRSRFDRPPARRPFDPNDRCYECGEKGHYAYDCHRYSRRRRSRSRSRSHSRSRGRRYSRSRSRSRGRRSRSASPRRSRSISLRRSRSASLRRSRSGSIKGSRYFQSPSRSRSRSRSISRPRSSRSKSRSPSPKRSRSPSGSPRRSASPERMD
# UniProt Q9NYA1, whole entry, looked up: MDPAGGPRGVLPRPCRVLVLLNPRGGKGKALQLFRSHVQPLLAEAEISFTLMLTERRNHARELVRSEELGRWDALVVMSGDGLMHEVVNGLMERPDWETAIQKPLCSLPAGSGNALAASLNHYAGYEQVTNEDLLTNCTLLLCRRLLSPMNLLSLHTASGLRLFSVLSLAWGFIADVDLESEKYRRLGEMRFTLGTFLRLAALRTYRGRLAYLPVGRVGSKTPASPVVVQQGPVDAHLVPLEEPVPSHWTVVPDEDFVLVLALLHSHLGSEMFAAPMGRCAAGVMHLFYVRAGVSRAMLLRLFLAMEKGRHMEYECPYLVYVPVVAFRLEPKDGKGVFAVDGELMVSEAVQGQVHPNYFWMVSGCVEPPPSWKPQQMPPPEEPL
# UniProt O43805: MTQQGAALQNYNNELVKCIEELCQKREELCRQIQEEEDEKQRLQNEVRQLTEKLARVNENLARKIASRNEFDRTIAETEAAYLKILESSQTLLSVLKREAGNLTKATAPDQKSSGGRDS
# UniProt P51692: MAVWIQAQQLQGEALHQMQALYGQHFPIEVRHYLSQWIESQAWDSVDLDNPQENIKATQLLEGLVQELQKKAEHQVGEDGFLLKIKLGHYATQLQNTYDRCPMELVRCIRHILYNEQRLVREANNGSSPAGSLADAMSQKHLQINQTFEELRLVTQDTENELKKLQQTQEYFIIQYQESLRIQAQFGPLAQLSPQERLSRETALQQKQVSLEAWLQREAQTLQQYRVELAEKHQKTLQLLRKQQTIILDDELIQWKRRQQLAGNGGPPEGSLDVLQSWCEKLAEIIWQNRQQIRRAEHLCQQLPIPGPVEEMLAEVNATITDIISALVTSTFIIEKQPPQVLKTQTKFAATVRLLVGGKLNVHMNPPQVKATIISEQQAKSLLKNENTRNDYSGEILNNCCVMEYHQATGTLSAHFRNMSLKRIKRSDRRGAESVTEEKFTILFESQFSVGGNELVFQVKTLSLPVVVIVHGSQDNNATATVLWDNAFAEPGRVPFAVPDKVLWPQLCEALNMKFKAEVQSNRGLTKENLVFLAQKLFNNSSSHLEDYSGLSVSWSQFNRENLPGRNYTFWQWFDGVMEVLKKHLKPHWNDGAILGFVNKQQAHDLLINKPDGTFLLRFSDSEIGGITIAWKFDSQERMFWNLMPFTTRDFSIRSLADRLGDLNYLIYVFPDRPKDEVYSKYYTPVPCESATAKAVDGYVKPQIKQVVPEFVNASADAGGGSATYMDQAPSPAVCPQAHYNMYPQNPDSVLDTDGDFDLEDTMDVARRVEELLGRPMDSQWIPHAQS
# UniProt Q16385, whole entry, looked up: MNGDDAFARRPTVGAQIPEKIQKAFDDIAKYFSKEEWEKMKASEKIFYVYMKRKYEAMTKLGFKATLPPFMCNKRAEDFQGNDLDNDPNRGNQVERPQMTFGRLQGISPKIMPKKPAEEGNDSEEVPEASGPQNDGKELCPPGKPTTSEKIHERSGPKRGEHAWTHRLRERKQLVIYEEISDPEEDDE
# UniProt Q15831: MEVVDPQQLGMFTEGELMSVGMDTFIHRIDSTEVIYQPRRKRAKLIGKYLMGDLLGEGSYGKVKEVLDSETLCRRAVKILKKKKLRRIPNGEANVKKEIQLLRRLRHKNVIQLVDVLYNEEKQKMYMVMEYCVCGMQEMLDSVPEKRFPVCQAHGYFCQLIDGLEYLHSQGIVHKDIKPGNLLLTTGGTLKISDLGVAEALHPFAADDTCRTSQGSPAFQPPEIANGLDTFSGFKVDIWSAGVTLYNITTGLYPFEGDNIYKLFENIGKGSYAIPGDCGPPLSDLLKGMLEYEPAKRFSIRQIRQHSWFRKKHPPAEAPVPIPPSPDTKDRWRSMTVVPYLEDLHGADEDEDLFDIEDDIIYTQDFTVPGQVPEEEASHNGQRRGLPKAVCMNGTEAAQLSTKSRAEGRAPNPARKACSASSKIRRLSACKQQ
# UniProt O15020, whole entry, looked up: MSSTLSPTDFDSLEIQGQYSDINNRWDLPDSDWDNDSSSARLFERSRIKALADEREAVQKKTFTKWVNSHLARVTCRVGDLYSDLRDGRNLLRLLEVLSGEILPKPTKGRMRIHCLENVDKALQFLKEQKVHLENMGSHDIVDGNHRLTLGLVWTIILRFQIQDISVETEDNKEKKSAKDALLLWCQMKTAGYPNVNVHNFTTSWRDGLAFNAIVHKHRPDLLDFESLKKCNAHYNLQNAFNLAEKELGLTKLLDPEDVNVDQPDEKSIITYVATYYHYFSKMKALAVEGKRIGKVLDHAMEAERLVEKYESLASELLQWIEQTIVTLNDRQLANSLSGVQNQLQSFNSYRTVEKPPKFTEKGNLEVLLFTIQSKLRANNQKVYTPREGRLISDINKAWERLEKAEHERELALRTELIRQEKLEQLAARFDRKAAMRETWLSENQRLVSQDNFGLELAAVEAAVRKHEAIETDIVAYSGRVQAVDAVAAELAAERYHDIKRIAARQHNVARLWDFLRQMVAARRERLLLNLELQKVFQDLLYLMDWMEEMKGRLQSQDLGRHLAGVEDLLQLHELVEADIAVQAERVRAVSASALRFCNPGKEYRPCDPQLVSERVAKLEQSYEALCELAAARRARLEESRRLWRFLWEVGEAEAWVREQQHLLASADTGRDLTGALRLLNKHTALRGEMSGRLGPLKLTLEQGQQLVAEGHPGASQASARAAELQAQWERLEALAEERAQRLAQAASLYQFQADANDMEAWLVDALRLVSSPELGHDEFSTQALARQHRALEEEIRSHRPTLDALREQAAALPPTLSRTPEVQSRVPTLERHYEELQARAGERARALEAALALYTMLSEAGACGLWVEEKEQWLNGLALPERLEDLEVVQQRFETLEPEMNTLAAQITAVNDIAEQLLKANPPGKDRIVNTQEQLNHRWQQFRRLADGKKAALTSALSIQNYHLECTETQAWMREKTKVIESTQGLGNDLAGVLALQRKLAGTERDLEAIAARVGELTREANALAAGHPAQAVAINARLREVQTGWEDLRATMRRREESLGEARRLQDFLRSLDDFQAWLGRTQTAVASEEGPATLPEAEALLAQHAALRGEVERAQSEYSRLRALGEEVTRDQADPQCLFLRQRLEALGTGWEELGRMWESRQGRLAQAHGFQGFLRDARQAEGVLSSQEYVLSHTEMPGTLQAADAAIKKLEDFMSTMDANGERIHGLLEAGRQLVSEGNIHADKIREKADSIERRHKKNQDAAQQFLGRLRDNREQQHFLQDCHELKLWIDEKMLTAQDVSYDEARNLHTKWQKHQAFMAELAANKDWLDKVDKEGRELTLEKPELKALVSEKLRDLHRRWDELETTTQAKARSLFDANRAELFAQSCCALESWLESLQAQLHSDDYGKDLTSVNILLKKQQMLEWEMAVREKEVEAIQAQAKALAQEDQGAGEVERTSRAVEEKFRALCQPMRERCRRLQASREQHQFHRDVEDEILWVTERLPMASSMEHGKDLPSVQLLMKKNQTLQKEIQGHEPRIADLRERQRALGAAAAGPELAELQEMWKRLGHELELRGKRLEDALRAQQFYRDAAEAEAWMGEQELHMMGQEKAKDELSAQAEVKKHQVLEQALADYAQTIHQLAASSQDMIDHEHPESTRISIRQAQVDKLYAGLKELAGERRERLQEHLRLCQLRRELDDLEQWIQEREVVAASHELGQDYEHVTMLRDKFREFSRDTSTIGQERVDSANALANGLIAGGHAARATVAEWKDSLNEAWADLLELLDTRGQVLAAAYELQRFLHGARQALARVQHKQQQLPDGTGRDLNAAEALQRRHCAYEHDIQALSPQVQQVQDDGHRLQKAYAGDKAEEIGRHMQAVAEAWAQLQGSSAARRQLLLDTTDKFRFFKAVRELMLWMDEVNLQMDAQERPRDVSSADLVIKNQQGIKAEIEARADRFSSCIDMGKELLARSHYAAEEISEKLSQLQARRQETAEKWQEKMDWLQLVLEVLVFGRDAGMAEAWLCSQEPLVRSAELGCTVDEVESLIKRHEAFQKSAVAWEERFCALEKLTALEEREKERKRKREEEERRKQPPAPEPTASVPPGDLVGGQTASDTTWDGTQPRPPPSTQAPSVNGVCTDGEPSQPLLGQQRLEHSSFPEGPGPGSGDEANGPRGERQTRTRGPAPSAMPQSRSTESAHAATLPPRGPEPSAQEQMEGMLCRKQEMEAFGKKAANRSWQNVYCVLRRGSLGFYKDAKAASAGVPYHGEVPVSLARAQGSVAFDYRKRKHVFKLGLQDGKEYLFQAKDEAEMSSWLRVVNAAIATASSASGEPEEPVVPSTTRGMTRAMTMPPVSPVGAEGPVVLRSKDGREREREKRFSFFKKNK
# UniProt P61011: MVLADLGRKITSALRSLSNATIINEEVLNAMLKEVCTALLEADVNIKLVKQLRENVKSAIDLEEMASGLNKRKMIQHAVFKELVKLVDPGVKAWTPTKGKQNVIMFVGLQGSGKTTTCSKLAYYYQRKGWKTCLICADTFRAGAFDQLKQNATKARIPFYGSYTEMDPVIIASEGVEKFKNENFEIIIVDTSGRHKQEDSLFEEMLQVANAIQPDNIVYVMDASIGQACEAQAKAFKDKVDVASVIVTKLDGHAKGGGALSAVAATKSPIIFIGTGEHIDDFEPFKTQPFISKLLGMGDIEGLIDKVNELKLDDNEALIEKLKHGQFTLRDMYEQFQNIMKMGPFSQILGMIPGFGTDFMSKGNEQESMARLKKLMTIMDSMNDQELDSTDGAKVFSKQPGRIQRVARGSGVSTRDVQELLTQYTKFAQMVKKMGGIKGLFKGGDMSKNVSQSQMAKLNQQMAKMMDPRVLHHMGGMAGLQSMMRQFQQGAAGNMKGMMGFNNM
# The list shows a part of the results.
# Compound: CC1=CC=C(C=C1)SC2=C3C=C(SC3=CN=C2)C(=O)N
# Assay: log2 fold change, soluble protein after heating vs DMSO (PISA); higher = thermal stabilisation; K562 cells, 10 uM, 30 min; active = over 0.2 and 3.5 SD of the protein, either way, in both replicates (recomputed)
# Outline: (§1)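 K562 cells at 2×10^6 cells/mL were given 10 μM compound for 30 min. Aliquots then went through 3 min of heating across 48°C-58°C, were pooled, and were extracted in PBS with 0.5% NP-40 at 4°C, and the supernatant after 21,000xg for 90 min was quantified by TMTpro 16plex LC-MS/MS with channel sums equalised. Thermal stability relative to control samples, from duplicates, is given as log2 fold change.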
row,Target,log2 fold change
1,SPPL2B (UniProt Q8TCT7),inactive: 0.089
2,SRSF3 (UniProt P84103),inactive: -0.208
3,SRGAP2 (UniProt O75044),inactive: -0.027
4,SRGN (UniProt P10124),inactive: -0.071
5,SSR1 (UniProt P43307),inactive: 0.003
6,SPART (UniProt Q8N0X7),inactive: 0.055
7,SRSF11 (UniProt Q05519),inactive: 0.009
8,STIM1 (UniProt Q13586),inactive: 0.028
9,SRSF7 (UniProt Q16629),inactive: -0.115
10,STK25 (UniProt O00506),inactive: -0.011
11,SPHK1 isoform 2 (UniProt Q9NYA1),inactive: 0.085
12,SPG7 (UniProt Q9UQ90),inactive: 0.016
13,SPTA1 (UniProt P02549),inactive: -0.02
14,SPPL2A (UniProt Q8TCT8),inactive: -0.055
15,STAT1 (UniProt P42224),inactive: 0.069
16,SRP68 (UniProt Q9UHB9),inactive: 0
17,SSNA1 (UniProt O43805),inactive: -0.001
18,STAT5B (UniProt P51692),inactive: 0.222
19,STAU1 (UniProt O95793),inactive: -0.124

row,Target,log2 fold change
1,SPATA5 (UniProt Q8NB90),inactive: -0.021
2,SSRP1 (UniProt Q08945),inactive: 0.018
3,ST6GAL1 (UniProt P15907),inactive: -0.028
4,SSX2 (UniProt Q16385),inactive: 0.011
5,STAM (UniProt Q92783),inactive: 0.041
6,SQSTM1 (UniProt Q13501),inactive: -0.054
7,STK11 (UniProt Q15831),inactive: 0.03
8,STARD3 (UniProt Q14849),inactive: -0.027
9,SPINDOC (UniProt Q9BUA3),inactive: -0.074
10,ST3GAL2 (UniProt Q16842),inactive: -0.216
11,"SPCS1, A0A5F9YFS9",inactive: 0.179
12,SRPRA (UniProt P08240),inactive: 0.018
13,SPTBN2 (UniProt O15020),inactive: -0.06
14,SRSF2 (UniProt Q01130),inactive: -0.033
15,SRM (UniProt P19623),inactive: -0.004
16,SREK1 isoform 2 (UniProt Q8WXA9),inactive: 0
17,SRP72 (UniProt O76094),inactive: 0.034
18,SRP54 (UniProt P61011),inactive: 0.003
19,ST7 (UniProt Q9NRC1),inactive: 0.039

# Compound: CC1=NC(=CC=C1)C2=C(N=C(N2)C(C)(C)C)C3=CC4=NC=CN=C4C=C3
# Assay: as above
# Outline: as §1
row,Target,log2 fold change
1,SPPL2B (UniProt Q8TCT7),inactive: 0.041
2,SRSF3 (UniProt P84103),inactive: -0.103
3,SRGAP2 (UniProt O75044),inactive: -0.027
4,SRGN (UniProt P10124),inactive: 0.004
5,SSR1 (UniProt P43307),inactive: -0.01
6,SPART (UniProt Q8N0X7),inactive: -0.014
7,SRSF11 (UniProt Q05519),inactive: 0.032
8,STIM1 (UniProt Q13586),inactive: 0.045
9,SRSF7 (UniProt Q16629),inactive: -0.112
10,STK25 (UniProt O00506),inactive: 0.029
11,SPHK1 isoform 2 (UniProt Q9NYA1),inactive: 0.006
12,SPG7 (UniProt Q9UQ90),inactive: -0.019
13,SPTA1 (UniProt P02549),inactive: -0.055
14,SPPL2A (UniProt Q8TCT8),inactive: -0.082
15,STAT1 (UniProt P42224),inactive: -0.068
16,SRP68 (UniProt Q9UHB9),inactive: 0.018
17,SSNA1 (UniProt O43805),inactive: 0.089
18,STAT5B (UniProt P51692),inactive: 0.111
19,STAU1 (UniProt O95793),inactive: -0.092

row,Target,log2 fold change
1,SPATA5 (UniProt Q8NB90),inactive: 0.002
2,SSRP1 (UniProt Q08945),inactive: 0.091
3,ST6GAL1 (UniProt P15907),inactive: -0.064
4,SSX2 (UniProt Q16385),inactive: 0.073
5,STAM (UniProt Q92783),inactive: 0.099
6,SQSTM1 (UniProt Q13501),inactive: -0.012
7,STK11 (UniProt Q15831),inactive: -0.006
8,STARD3 (UniProt Q14849),inactive: 0.036
9,SPINDOC (UniProt Q9BUA3),inactive: -0.139
10,ST3GAL2 (UniProt Q16842),inactive: 0.066
11,"SPCS1, A0A5F9YFS9",inactive: 0.049
12,SRPRA (UniProt P08240),inactive: 0.047
13,SPTBN2 (UniProt O15020),inactive: -0.019
14,SRSF2 (UniProt Q01130),inactive: -0.032
15,SRM (UniProt P19623),inactive: 0.025
16,SREK1 isoform 2 (UniProt Q8WXA9),inactive: 0.045
17,SRP72 (UniProt O76094),inactive: -0.009
18,SRP54 (UniProt P61011),inactive: 0
19,ST7 (UniProt Q9NRC1),inactive: -0.083
